Laboratory results from PubChem BioAssay AID2685 (National Center for Advancing Translational Sciences (NCATS), 2010).
Out of some 320,000 compounds screened, about 2,100 (0.66%) were called active. The shares of active, inactive and inconclusive entries below differ from those in the screen. Calls come from the whole dose curve; as a rule, active = well fitted inhibition curve with a large enough effect in the signal ratio, with a control signal flat (not every such curve was filed as active); inconclusive = small, poorly fitted or top-dose-only effect, or effect the other way, or a change in a side signal; inactive = flat fitted curve, though single readings scatter; the % refers to the signal ratio. Where the call is inconclusive, the potency comes from a doubtful curve fit.

experiment: qHTS Assay for Lipid Storage Modulators in Drosophila S3 Cells; settings: BODIPY lipid droplet fluorescence, 18-24 h, cells fed with added oleic acid; lipid storage change, negative = inhibition: at 46.1 µM (top of the series) unless noted
How it was run: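 Drosophila S3 cells loaded with oleic acid (400 uM, as added) and compounds at several concentrations; lipid droplets imaged by 488-nm laser-scanning cytometry, 500–530 nm intensity and object ratio to cell channel. Percent activity normalized to 20 uM Triacsin C.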
% is set by controls: 0 for no effect and ±100 for the full control effect; potency is the fitted concentration of half-maximal effect.

Row | Compound | Potency | lipid storage change, negative = inhibition
1 | CCN(Cc1cc(=O)oc2cc(C)ccc12)c1ccccc1 | inconclusive: 20.6 µM [falling, single point] | –
2 | COc1ccc([C@@H]2CC=C(C(=O)O)[C@H](c3ccccc3)N2S(=O)(=O)c2ccccc2C)cc1 | inconclusive: 10.3 µM [activator, partial curve] | –
3 | CC1CCCC(C)N1/N=C/c1ccccc1C(=O)O (stereo unspecified) | – | inconclusive: -98.7%
4 | CC1Cc2ccccc2N1C(=O)CCNS(=O)(=O)c1cccc2nsnc12 (stereo unspecified) | – | inconclusive: 2.56%
5 | COCCN(CC1CCCN(C2Cc3ccccc3C2)C1)C(=O)CSC (stereo unspecified) | – | inconclusive: 36%
6 | CCC(NS(=O)(=O)c1cnn(CC)c1)c1ccccc1 (stereo unspecified) | – | inconclusive: -29.2%
7 | O=C(O)COn1c(-c2ccc(Cl)cc2)nc2ccc(Cl)cc21 | inconclusive: 6.51 µM [falling, partial curve, poor fit] | –
8 | O=C(NCC(=O)N(c1ccc(F)cc1)C(C(=O)NC1CCCCC1)c1cccnc1)c1ccco1 (stereo unspecified) | – | inconclusive: 96.1%
9 | CCNS(=O)(=O)c1ccc(OC)c(C)c1 | – | inconclusive: 27.1%
10 | Cc1ccc(C(=O)C2CCN(CC(=O)Nc3nc(C)cs3)CC2)cc1 | – | inconclusive: -0.451%
11 | Cc1ccc(N(Cc2ccccc2)C(=O)c2ccc(Cl)c(S(=O)(=O)N3CCOCC3)c2)cc1 | – | inconclusive: -0.616%
12 | CCN(CC(=O)Nc1ccc(NC(C)=O)cc1)C(=O)CCCOc1ccc(C(C)(C)C)cc1 | inconclusive: 29.1 µM [falling, single point] | –
13 | CC(NS(=O)(=O)OCC(Cl)(Cl)Cl)c1ccc(Br)cc1 (stereo unspecified) | – | inconclusive: -15.1%
14 | Cc1ccc(NC(=O)CSc2nnc([C@H](C)NC(=O)OC(C)(C)C)o2)c(C)c1 | – | inconclusive: 0.379%
15 | Cc1ccc(Nc2cc(C)nc3ncnn23)c(C)c1 | – | inconclusive: -49.5%
16 | Cc1ccc(OCCn2c(C3CC(=O)N(Cc4ccccc4)C3)nc3ccccc32)cc1 (stereo unspecified) | – | inconclusive: 49.2%
17 | O=C(O)CSc1ncnc2scc(-c3ccccc3)c12 | – | inconclusive: 26%
18 | NC(=O)c1cc([N+](=O)[O-])ccc1NCCN1C(=O)c2ccc(C(=O)O)cc2C1=O | inconclusive: 6.51 µM [cytotoxic, single point] | –
19 | CSc1cccc(NC(=O)Nc2ccccc2)c1 | – | inconclusive: 126%
20 | C=CCNC(=O)/C=C/c1ccc(C(C)C)cc1 | inconclusive: 4.61 µM [activator, single point] | –
21 | O=C(C1COc2ccccc2O1)N1CCN(S(=O)(=O)c2ccccc2)CC1 (stereo unspecified) | – | inconclusive: -8.26%

Row | Compound | Potency | lipid storage change, negative = inhibition
22 | Cc1nnc(SCC(=O)NC2CCCCC2)n1C1CCCCC1 | – | inconclusive: 11.2%
23 | O=C(CSC1=Nc2ccccc2C2=NC(CC(=O)NC3CCCCC3)C(=O)N12)NCc1ccco1 (stereo unspecified) | – | inconclusive: 34.4%
24 | O=C(COC(=O)CC1SC(N2CCCC2)=NC1=O)Nc1ccc(Br)cc1 (stereo unspecified) | – | inconclusive
25 | N#CCCN(CC(=O)O)S(=O)(=O)c1ccccc1 | inconclusive: 5.8 µM [cytotoxic, full curve] | –
26 | COC(=O)C(Cc1c[nH]c2ccccc12)NC(=O)c1ccc2nc[nH]c2c1 (stereo unspecified) | – | inconclusive: 2.59%
27 | O=C(Cc1ccccc1Cl)N1CCOCC1 | – | inconclusive: -100%
28 | C=CCNC(=O)CSc1nnc(C(CC)N(C)C)n1C1CCCCC1 (stereo unspecified) | – | inconclusive: 1.33%
29 | CC(C)c1ccc(NC2=CC(=O)CC(C)(C)C2)cc1 | – | inconclusive: -13.9%
30 | CN(C(=O)c1cc2ccccc2cc1O)C1CCCCC1 | – | inconclusive: 16.1%
31 | Cc1[nH]oc(=O)c1N=Nc1c(Cl)cccc1Cl | – | inconclusive: -111%
32 | CCn1ccnc1CN(C)Cc1c(C(=O)N2CCCCCCC2)nc2ccc(Cl)cn12 | – | inconclusive: -51.4%
33 | COc1ccc(C)cc1S(=O)(=O)N(CC(N)=O)Cc1ccccc1 | – | inconclusive: 21.6%
34 | Cc1ccnc(NC(=O)Cn2c(=O)oc3cc(S(=O)(=O)N4CCCC4)ccc32)c1 | – | inconclusive: 1.23%
35 | COc1ccc(-c2cc3ncnc(Cl)c3s2)cc1 | – | inconclusive: -4.58%
36 | COC(=O)CSc1nnc(COc2ccc([N+](=O)[O-])cc2)n1C | – | inconclusive: -15.9%
37 | CCC(C)N(C(=O)COC(=O)Cc1n[nH]c(=O)c2ccccc12)C1CCS(=O)(=O)C1 (stereo unspecified) | – | inconclusive: 56.9%
38 | Cc1onc(-c2ccccc2Cl)c1C(=O)Oc1cc(N)n(S(=O)(=O)c2ccc(F)cc2)n1 | – | inactive: -2.64%
39 | CCOC(=O)C1CSC2(CCC(c3ccccc3)CC2)N1 (stereo unspecified) | inconclusive: 16.4 µM [cytotoxic, partial curve, poor fit] | –
40 | COc1ccc2nc(CC(C)(C)CC(=O)O)c[n+]([O-])c2c1 | – | inconclusive: 4.75%
41 | CC(OC(=O)c1cccc(S(=O)(=O)N2CCCCC2)c1)C(=O)NCC1CCCCC1 (stereo unspecified) | – | inconclusive
42 | Cc1[nH]nc2c1C1(CCOCC1)C(C#N)=C(N)O2 | inconclusive: 0.82 µM [activator, full curve] | –

Row | Compound | Potency | lipid storage change, negative = inhibition
43 | CC(=O)c1ccc(NC(=O)CSc2nnc(Cn3cnc4ccccc43)o2)cc1 | – | inconclusive: 24.5%
44 | Clc1ccc(-c2nc(N3CCOCC3)nc3ccccc23)cc1 | – | inconclusive: 58.2%
45 | COc1cc(NC(=O)Cn2cnc(S(=O)(=O)N3CCC(C)CC3)c2)cc(OC)c1OC | – | inconclusive: 105%
46 | COc1ccc(C2C(C(=O)c3cc4cccc(OC)c4o3)=C(O)C(=O)N2CCCN(C)C)cc1OC (stereo unspecified) | – | inconclusive: 0.0405%
47 | CCOc1ccc2nc(N3CCC(C(=O)NCCCN4CCOCC4)CC3)sc2c1 | – | inconclusive: -18.1%
48 | CN(c1cccc(NC(=O)CCSc2ccccc2)c1)S(C)(=O)=O | – | inconclusive: 32.7%
49 | Cc1ccccc1NS(=O)(=O)c1cc2c3c(c1)C(C)C(=O)N3CCC2 (stereo unspecified) | – | inactive: 23.9%
50 | CCn1ncc(S(=O)(=O)NCc2ccccc2Cl)c1C | inconclusive: 0.0651 µM [falling, full curve, poor fit] | –
51 | CC1CCc2nc(/C(C#N)=C/c3cccnc3)sc2C1 (stereo unspecified) | – | inconclusive: 1.3%
52 | CCOC(=O)N1CCN(CC(O)COc2ccc3c(c2)CCC3)CC1 (stereo unspecified) | – | inactive: 12.3%
53 | COc1ccc(/C=C(/NC(=O)c2ccc(OC)cc2)C(=O)NCCc2c[nH]c3ccccc23)cc1 | – | inconclusive: 19.5%
54 | CCNC(=S)Nc1ccc(Cc2ccncc2)cc1 | – | inconclusive: 44.2%
55 | N#C/C(=C\C1=C(N2CCOCC2)C(=C/c2cccc([N+](=O)[O-])c2)/CC1)C(=O)Nc1ccccc1F | active: 2.06 µM | –
56 | CCn1c(=O)c2sccc2n(CC(=O)NCCC2=CCCCC2)c1=O | – | inconclusive: -22.6%
57 | CN(C)c1ccc(NC(=O)Nc2ccc3snnc3c2)cc1 | – | inconclusive: 23.6%
58 | CC(C)(C)c1cc(Cc2ccccc2)[nH]n1 | – | inconclusive: 40.6%
59 | COc1ccc(NC(C)=O)cc1NC(C)C(=O)Nc1cccc2ccccc12 (stereo unspecified) | inconclusive: 16.4 µM [activator, single point] | –
60 | CCCOc1ccc(-c2nc(C#N)c(NCCCn3ccnc3)o2)cc1 | – | inconclusive: -68.8%
61 | CCOc1ccc(N2CC(C(=O)N3CCCCCC3)CC2=O)cc1 (stereo unspecified) | inconclusive: 16.4 µM [activator, partial curve] | –
62 | CCOc1ccc(S(=O)(=O)NCc2cccnc2)c2ccccc12 | inconclusive: 29.1 µM [falling, single point] | –
63 | COc1ccc(CN2CC(C(=O)NC3CCCCC3)CC2=O)cc1 (stereo unspecified) | – | inconclusive: 37.9%

Row | Compound | Potency | lipid storage change, negative = inhibition
64 | O=C(N/N=C/c1ccc(OC(=O)c2ccccc2Cl)cc1)c1cc(O)cc(O)c1 | inconclusive: 29.1 µM [falling, single point] | –
65 | Cc1nc2ccccc2nc1Nc1cccc(Cl)c1 | – | inconclusive: 17.4%
66 | COc1ccc(CN2C=C3C(=O)C(C)(OC(=O)CCc4ccccc4)C(=O)C=C3C=C2c2ccc(C#N)cc2)cc1 (stereo unspecified) | – | inconclusive: 5.71%
67 | Cn1cc(S(=O)(=O)NCc2ccc(F)cc2)c(=O)n(C)c1=O | – | inconclusive: -11.3%
68 | CC(=O)c1ccc(N2CCN(C(=S)Nc3cccc(Cl)c3)CC2)cc1 | inconclusive: 1.84 µM [activator, full curve] | –
69 | CC(C)c1nnc(NC(=O)c2ccc3ccccc3c2)s1 | – | inactive: -9.44%
70 | Cc1nnc(SCC(=O)Nc2sccc2C(N)=O)n1Cc1ccccc1 | inconclusive: 6.51 µM [activator, single point] | –
71 | COc1cc(C2C(C(=O)c3ccco3)=C(O)C(=O)N2c2cc(C)on2)cc(Br)c1O (stereo unspecified) | – | inconclusive: 35.1%
72 | CCn1c(N)c(C(=O)NCc2ccc3c(c2)OCO3)sc1=S | inconclusive: 2.91 µM [activator, partial curve] | –
73 | O=C(COC(=O)c1cncc(Br)c1)NC1CCCC1 | – | inconclusive: -16.9%
74 | Cc1ccc(C(=O)O/N=C(\c2ccccc2)c2ccncc2)cc1 | – | inconclusive: 2.59%
75 | C=CCNc1nc(-c2ccc(OC)cc2OC)cs1 | – | inconclusive: 12.1%
76 | Cc1cc(/C=C2/C(=O)NN(c3ccccc3)C2=O)c(C)n1-c1ccc(O)cc1 | – | inconclusive: 14.3%
77 | COC(=O)c1ccccc1NC(=O)N1CCc2ccc(NC(=O)c3ccccn3)cc2C1 | – | inconclusive: 0.0897%
78 | COc1ccccc1CNS(=O)(=O)c1cc(-c2cc(C)no2)ccc1C(C)C | inconclusive: 29.1 µM [falling, single point] | –
79 | O=C1CC(c2ccc(Cl)cc2)n2nc(NS(=O)(=O)c3ccc(F)cc3)nc2N1 (stereo unspecified) | – | inconclusive: 0.337%
80 | O=C(Cc1ccccc1)N1CCCC(c2nc(-c3cccs3)no2)C1 (stereo unspecified) | – | inconclusive: 6.68%
81 | CCn1c(=O)c2c(nc(SCC(=O)N3CCCC(C)C3)n2C)n(C)c1=O (stereo unspecified) | inconclusive: 6.51 µM [falling, single point] | –

A draw from above in order of molar mass, high to low.
Row | Compound | Potency | lipid storage change, negative = inhibition
70 | Cc1nnc(SCC(=O)Nc2sccc2C(N)=O)n1Cc1ccccc1 | inconclusive: 6.51 µM [activator, single point] | –
67 | Cn1cc(S(=O)(=O)NCc2ccc(F)cc2)c(=O)n(C)c1=O | – | inconclusive: -11.3%
74 | Cc1ccc(C(=O)O/N=C(\c2ccccc2)c2ccncc2)cc1 | – | inconclusive: 2.59%

Quoted at random: 3 entries already listed
Row | Compound | Potency | lipid storage change, negative = inhibition
77 | COC(=O)c1ccccc1NC(=O)N1CCc2ccc(NC(=O)c3ccccn3)cc2C1 | – | inconclusive: 0.0897%
75 | C=CCNc1nc(-c2ccc(OC)cc2OC)cs1 | – | inconclusive: 12.1%
71 | COc1cc(C2C(C(=O)c3ccco3)=C(O)C(=O)N2c2cc(C)on2)cc(Br)c1O (stereo unspecified) | – | inconclusive: 35.1%
